{"source": "PubChem BioAssay AID504648", "about": "(National Center for Advancing Translational Sciences (NCATS), 2011)", "note": "In all, about 390,000 compounds went through this assay and about 610 (0.16%) were called active. The inconclusive results got no clear call from the source; some entries with a clear call stand among them for comparison. The call rests on the fitted dose curve; in most records, active means well fitted inhibition curve with a large enough effect; inconclusive means small, poorly fitted or top-dose-only effect, or effect the other way, or another doubt; inactive means no such curve, though single readings can be large or run the other way. Potencies of inconclusive entries are doubtful fits and often do not repeat. Potency means the concentration at half of the fitted maximal effect.", "data": [{"test": "Nrf2 qHTS screen for inhibitors: counterscreen for cytotoxicity", "details": "A549 ARE-Fluc cells, CellTiter-Fluor viability, 18-24 h; series mostly up to 46 µM", "method_in_brief": "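A549 ARE-Fluc cells in 5% FBS OPTI-MEM, 5000 cells/well, rested 2 h then exposed to compounds in concentration-response for 18-24 h at 37 °C. Viability by CellTiter-Fluor fluorescence (Ex 405/Em 525) after 30 min; luciferase luminescence (BugLite, 15 min, RT) read afterwards.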", "values": [{"smiles": "CCC(CO)Oc1cc(NCc2ccc(Cl)cc2Cl)c2ncn(C(C)C)c2c1", "note": "(stereo not given)", "Potency": "inconclusive: 32.6 µM [falling, single point]"}, {"smiles": "COc1cc(C(=O)NCCc2cn3ccc(C)cc3n2)cc(OC)c1OC", "Potency": "inconclusive: 18.4 µM [falling, single point]"}, {"smiles": "COC(=O)Nc1ccc(S(=O)(=O)N2c3ccccc3CCC2C)cc1", "note": "(stereo not given)", "Potency": "inactive"}, {"smiles": "CCCN(C(=O)c1ccc2c(=O)n3c(nc2c1)CCCCC3)c1cccc(Cl)c1", "Potency": "inactive"}, {"smiles": "O=C(/C=C/c1cn(-c2ccccc2)nc1-c1cccnc1)N1CCCC1", "Potency": "inconclusive: 32.6 µM [falling, partial curve, poor fit]"}, {"smiles": "COc1ccccc1CN1CCC(CNC(=O)c2cnn(-c3cccc(Cl)c3)c2C2CCN(C(=O)OC(C)(C)C)CC2)CC1", "Potency": "inconclusive: 18.4 µM [falling, single point]"}, {"smiles": "C/C(=N\\Nc1nc(C(=O)O)cs1)c1ccccc1", "Potency": "inactive"}, {"smiles": "Cc1c(C(=O)NCCC2=CCCCC2)oc2ccc(S(=O)(=O)N3CCOCC3)cc12", "Potency": "inconclusive: 20.6 µM [falling, partial curve, poor fit]"}, {"smiles": "COc1cc(OC)c(OC)cc1CN1CCCC(C(=O)N2CCCCC2)C1", "note": "(stereo not given)", "Potency": "inconclusive: 5.8 µM [activator, partial curve, poor fit]"}, {"smiles": "Cc1oc(-c2ccccc2F)nc1CS(=O)(=O)CC(=O)NCCCc1ccccc1", "Potency": "inactive"}, {"smiles": "C/C(=N/Nc1nc(-c2ccccc2)c(CC(=O)O)s1)c1ccccc1", "Potency": "inconclusive: 1.84 µM [falling, partial curve, poor fit]"}, {"smiles": "CN(Cc1ccccc1)C(=O)c1ccc(CSc2nc3cccnc3n2Cc2ccccc2)cc1", "Potency": "inconclusive: 23.1 µM [falling, single point]"}, {"smiles": "O=C(NCC(c1ccco1)N1CCCCC1)c1cccc(S(=O)(=O)Nc2ccccc2Cl)c1", "note": "(stereo not given)", "Potency": "inconclusive: 23.1 µM [falling, partial curve, poor fit]"}, {"smiles": "CCc1nc(C)cn1S(=O)(=O)c1cc(F)ccc1OC", "Potency": "inactive"}, {"smiles": "CC(=O)c1cn(CC(=O)Nc2ccccc2C)c2ccccc12", "Potency": "inactive"}, {"smiles": "CN(C)CCC1(C2=CCCC2)CC/C(=C/c2ccc(Cl)cc2)C1=O", "note": "(stereo not given)", "Potency": "inconclusive: 29.1 µM [falling, single point]"}, {"smiles": "O=C(Nc1ccc2oc(-c3ccc(Br)cc3)nc2c1)c1cc2ccccc2o1", "Potency": "inconclusive: 6.51 µM [activator, partial curve, poor fit]"}, {"smiles": "COc1cccc(CNCc2c(C(=O)O)n(Cc3ccc(C)cc3)c3cc(C)ccc23)c1OC", "Potency": "inconclusive: 23.1 µM [falling, single point]"}, {"smiles": "O=[N+]([O-])c1ccc(/C=N/Nc2ccccn2)cc1", "Potency": "inactive"}, {"smiles": "Cc1ccc([N+](=O)[O-])cc1-c1[nH]c(-c2ccc(O)c(O)c2)nc1-c1ccccc1", "Potency": "inconclusive: 29.1 µM [falling, single point]"}, {"smiles": "COc1ccc(CCNC(=O)c2cnc3sc(N4CCCCCC4)nn3c2=O)cc1", "Potency": "inactive"}, {"smiles": "COc1ccc(-c2ccc3c(c2)S(=O)(=O)c2cccc(C(=O)N4CCN(C5CCCCC5)CC4)c2C3=O)cc1OC", "Potency": "inconclusive: 29.1 µM [falling, single point]"}, {"smiles": "COc1ccccc1/C=C/C1(C(=O)NC2CCCC2)CC(=O)N1c1ccc(F)cc1", "note": "(stereo not given)", "Potency": "inconclusive: 29.1 µM [falling, single point]"}, {"smiles": "CC(C)=NNC(=O)C1=NNC(=O)C1", "Potency": "inconclusive: 32.6 µM [activator, partial curve, poor fit]"}, {"smiles": "C[C@H](NS(=O)(=O)c1ccc(F)cc1)C(=O)OCC(=O)c1c(N)n(C)c(=O)n(C)c1=O", "Potency": "inconclusive: 20.6 µM [activator, partial curve, poor fit]"}, {"smiles": "CCC(C)NS(=O)(=O)c1ccc(OCC(=O)N2CCC(C)CC2)cc1", "note": "(stereo not given)", "Potency": "inconclusive: 3.66 µM [activator, partial curve, poor fit]"}, {"smiles": "CCCN1C(=O)C2(C(C(=O)c3ccc(C)o3)=C(O)C(=O)N2CCCOC)c2ccccc21", "note": "(stereo not given)", "Potency": "inactive"}, {"smiles": "OC(CNCc1ccco1)Cn1c2ccccc2c2ccccc21", "note": "(stereo not given)", "Potency": "inconclusive: 29.1 µM [falling, partial curve, poor fit]"}, {"smiles": "CCC(C)S(=O)(=O)c1oc(-c2ccc(F)cc2)nc1S(=O)(=O)c1ccc(F)cc1", "note": "(stereo not given)", "Potency": "inconclusive: 29.1 µM [falling, single point]"}, {"smiles": "O=C(Nc1ccc(F)cc1F)Nc1sccc1-c1nc2ccccc2s1", "Potency": "inconclusive: 23.1 µM [activator, partial curve, poor fit]"}, {"smiles": "Cc1c(-n2cc(C(=O)O)c(=O)c3cc(F)c(N4CCCC(O)C4)c(F)c32)c(=O)n(-c2ccccc2)n1C", "note": "(stereo not given)", "Potency": "inactive"}, {"smiles": "COc1ccc(OC)c(NC(=O)CCN2CCN(C)CC2)c1", "Potency": "inactive"}, {"smiles": "CCn1c(SCc2nc(-c3cccs3)no2)nnc1-c1c[nH]c2ccccc12", "Potency": "inconclusive: 32.6 µM [falling, single point]"}, {"smiles": "COc1ccc(Cn2c(C(=O)O)c(CNCc3ccc(C)o3)c3ccc(OC)cc32)cc1", "Potency": "inconclusive: 13 µM [falling, partial curve]"}, {"smiles": "COc1ccc(OC)c(/C=C2\\S/C(=N/NC(=O)c3ccc4ccccc4c3)NC2=O)c1", "Potency": "inconclusive: 16.4 µM [falling, partial curve, poor fit]"}, {"smiles": "COc1cc(/C=C(\\C#N)C(=O)NC2CCCCC2C)ccc1OS(=O)(=O)c1ccc(C)cc1", "note": "(stereo not given)", "Potency": "inconclusive: 29.1 µM [falling, single point]"}, {"smiles": "Cc1ccc(C)c(NC(=O)Cn2cc(S(=O)(=O)NC(C)C)c(S(=O)(=O)NC(C)C)c2)c1", "Potency": "inactive"}, {"smiles": "CCCCCC(=O)N/N=C/c1ccc(N(C)C)cc1", "Potency": "inactive"}, {"smiles": "CCOC(=O)c1csc(Nc2nc3ccc(F)cc3s2)n1", "Potency": "inconclusive: 20.6 µM [falling, partial curve]"}, {"smiles": "COCCn1c(C)cc(C(=O)CSc2nc3ccccc3c(=O)n2Cc2ccco2)c1C", "Potency": "inconclusive: 8.2 µM [falling, partial curve, poor fit]"}, {"smiles": "Cc1cc(C)c(C)c(S(=O)(=O)N2CCN(Cc3nc4ccccc4[nH]3)CC2)c1C", "Potency": "inactive"}, {"smiles": "Nc1nc(NC(=O)c2cccc(S(=O)(=O)N3CCCCCC3)c2)nc(-c2ccccc2)n1", "Potency": "inconclusive: 23.1 µM [falling, single point]"}, {"smiles": "CC(C)(C)c1nnc(N/N=C/c2ccccc2O)n(N)c1=O", "Potency": "inconclusive: 32.6 µM [falling, single point]"}, {"smiles": "O=C(Nc1nnc(-c2cccs2)o1)c1cccc(C(F)(F)F)c1", "Potency": "inactive"}, {"smiles": "COc1ccc(C(=O)NCCNc2nc3cc(C)c(C)cc3cc2C)cc1", "Potency": "inconclusive: 2.59 µM [activator, partial curve]"}, {"smiles": "N#CC1=C(N)NC(SCC(=O)Nc2ccc(Br)cc2)=C(C#N)C12CCCCC2", "Potency": "inconclusive: 29.1 µM [falling, single point]"}, {"smiles": "CCOc1ccc(C2CC(=O)Nc3c2c(=O)[nH]c2ncnn32)cc1", "note": "(stereo not given)", "Potency": "inactive"}, {"smiles": "CCc1ccc(C(=O)c2cn(CC(=O)Nc3ccc(F)cc3)c3ccc(F)cc3c2=O)cc1", "Potency": "inconclusive: 10.3 µM [falling, partial curve, poor fit]"}, {"smiles": "CCOC(=O)Cc1csc(NC(=O)C(NC(=O)C2CCC(C)CC2)C(C)C)n1", "note": "(stereo not given)", "Potency": "inactive"}, {"smiles": "Cc1ccc(C)c(-c2nnc(NC(=O)c3ccco3)o2)c1", "Potency": "inconclusive: 25.9 µM [falling, partial curve, poor fit]"}, {"smiles": "COc1ccc(C(C)=O)cc1CSc1nc(NCc2ccccc2)c2ccccc2n1", "Potency": "active: 23.1 µM"}, {"smiles": "COc1ccc(/C=N/NC(=O)CCSc2nc3ccccc3s2)cc1OC", "Potency": "inconclusive: 18.4 µM [falling, partial curve, poor fit]"}, {"smiles": "Cn1c(=O)c2c(SCC(=O)Nc3ccc4c(c3)OCCO4)nc(CC(C)(C)C)nc2n(C)c1=O", "Potency": "inconclusive: 9.2 µM [falling, partial curve, poor fit]"}, {"smiles": "COc1ccccc1CNC(=O)c1ccc2c(c1)nc(C)n2-c1cccc(C)c1", "Potency": "inactive"}, {"smiles": "O=S(=O)(Oc1ccccc1)c1ccc(Cl)c(Cl)c1", "Potency": "inactive"}, {"smiles": "COc1ccc(-c2nnc(Nc3ccc(OC)c(C(=O)N4CCCCC4)c3)c3ccccc23)cc1", "Potency": "inconclusive: 20.6 µM [falling, partial curve, poor fit]"}, {"smiles": "Cc1ccc2c(c1)c(=O)c1ccccc1n2CCCC(=O)Nc1ccc(C)c(C)c1", "Potency": "inconclusive: 23.1 µM [falling, partial curve, poor fit]"}, {"smiles": "O=C(Cn1cnc2ccccc2c1=O)NCc1ccc2c(c1)OCO2", "Potency": "inconclusive: 16.4 µM [falling, partial curve, poor fit]"}, {"smiles": "C=CC[C@@H](CC(=O)N[C@H](CO)Cc1ccccc1)C(=O)NC[C@H](OC(=O)[C@@H](CC=C)Cc1ccc(F)cc1)c1ccccc1", "Potency": "inconclusive: 32.6 µM [falling, partial curve, poor fit]"}, {"smiles": "CC(C)(C)C(=O)N1CCN(c2ccc([N+](=O)[O-])c(NCC3CCCO3)c2)CC1", "note": "(stereo not given)", "Potency": "inconclusive: 7.31 µM [falling, partial curve]"}, {"smiles": "CC(=O)Nc1sc2c(c1-c1nc3ccccc3s1)CCN(C(C)C)C2", "Potency": "inactive"}, {"smiles": "O=[N+]([O-])c1cc(/C=N/N/C(=N/c2ccccn2)c2ccccn2)ccc1O", "Potency": "inconclusive: 23.1 µM [falling, single point]"}, {"smiles": "O=C(CCSc1ccccc1Cl)Nc1cccc([N+](=O)[O-])c1", "Potency": "inconclusive: 20.6 µM [falling, single point]"}, {"smiles": "O=C(CC1C(=O)NCCN1Cc1ccc(-c2ccccc2)cc1)NCC1CC1", "note": "(stereo not given)", "Potency": "inconclusive: 29.1 µM [falling, partial curve, poor fit]"}, {"smiles": "Cc1ccc(C(=O)Nc2ccccc2-c2ccccc2)cc1[N+](=O)[O-]", "Potency": "inconclusive: 25.9 µM [falling, partial curve, poor fit]"}]}]}
